EP0438230B1, “Indole-substituted five-membered heteroaromatic compounds” (MERCK SHARP & DOHME LTD., priority 1990, dated 1991)
Some results were stated once for a whole list of compounds, not compound by compound.

Tested on: 5-HT1-like receptor
Assay: Agonist activity: contraction of the isolated rabbit saphenous vein
Conditions: contraction of saphenous vein of New Zealand White rabbits; from plots of percentage 5-HT (1 µm) response against agonist concentration

For `CN1CCC(c2c[nH]c3ccc(Cc4nc(N)no4)cc23)CC1` [Example 110, 4-[5-(3-Amino-1,2,4-oxadiazol-5-ylmethyl)-1H-indol-3-yl]N-methylpiperidine], the “pEC50 (-log10EC50)” value was “not less than 5.0”.
